The whole screen tested about 340,000 compounds, of which about 170 (0.05%) were called active. The inconclusive results got no clear call from the source; some entries with a clear call stand among them for comparison. Calls come from the whole dose curve; as a rule, active = well fitted inhibition curve with a large enough effect in the signal ratio, with a control signal flat (not every such curve was filed as active); inconclusive = small, poorly fitted or top-dose-only effect, or effect the other way, or a change in a side signal; inactive = flat fitted curve, though single readings scatter; the % refers to the signal ratio. Potencies beside an inconclusive call are fits to weak or partial responses and may not hold up.
Test: qHTS Assay to Find Inhibitors of Chronic Active B-Cell Receptor Signaling;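 for activity change, negative = inhibition: plate controls were basal doxycycline-induced cells for no effect and cells given 10 µM MG132 for full effect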
Details: ABC-DLBCL IkBa-CBG/CBR reporter, luminescence ratio (green luciferase fused to IkBa over red control in TMD8 lymphoma cells), 4 h; activity change, negative = inhibition: at 46.1 µM (top of the series)
Procedure, shortened: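 Cell line TMD8 (human ABC DLBCL), stably expressing tet-inducible CBG68-IkBa fusion and CBR; IMDM/0.5% FBS; cpd up to 46 uM; dox induction, 4 h, 37C/5% CO2; dual luminescence; green/red ratio; MG132 control.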
Potency is the fitted concentration of half-maximal effect.

SMILES	activity change, negative = inhibition	Potency
O=C(CCCN1C(=O)c2ccccc2C1=O)Oc1ccc(F)cc1	inconclusive: 25.5%	–
Clc1ccc(CSc2nnc3c(n2)[nH]c2ccccc23)cc1	inconclusive: 4.69%	–
N#Cc1cccc(NC(=O)COc2ccc(-n3ccnc3)cc2)c1	inconclusive: 6.95%	–
O=C(c1ccccc1Nc1ccc(SC(F)F)cc1)N1CCCCCC1	inconclusive: 20.2%	–
CC(=O)CC(C)(C)S(=O)(=O)c1ccc(Oc2ccc(S(=O)(=O)C(C)(C)CC(C)=O)cc2)cc1	inconclusive: 10.9%	–
O=C(COc1coc(CN2CCc3ccccc3C2)cc1=O)Nc1cccc(Cl)c1	inconclusive: 12.7%	–
Cc1nc(N2CCOCC2)[nH]c(=O)c1CCC(C)C	inactive: 6.45%	–
c1ccc2c(c1)C(=NC1CCCCC1)NC2=NC1CCCCC1	–	inconclusive: 12.6 µM [falling, single point]
Cc1ccc(C)c(NC(=O)CSc2nc(=O)n(Cc3ccncc3)c3c2CCC3)c1	inactive: 3.06%	–
O=c1[nH]c(=O)n(Cc2ccccc2)c2nc(-c3cccs3)n(CCO)c12	inactive: -10.6%	–
CCOC(=O)C1=CC[C@@H](c2cc3ccc(OC)cc3n2C)N(S(=O)(=O)c2ccc(C)cc2)[C@H]1C(=O)OCC	inconclusive: 3.91%	–
CSc1ccccc1NC(=O)C(=O)c1c[nH]c2ccccc12	–	inconclusive: 31.6 µM [rising, single point]
NNc1nc2sc3c(c2c(=O)n1-c1ccccc1)CCCC3	–	inconclusive: 10 µM [falling, partial curve]
Cn1ncc(C(N)=O)c1NC(=S)NC(=O)c1ccc(Br)o1	inconclusive: 5.39%	–
COc1ccc(CCNc2cc(=O)[nH]c(N)n2)cc1	inactive: -0.232%	–
CCN(CC)CCN(C(=O)c1ccc2ncsc2c1)c1nc2cc3c(cc2s1)OCO3	–	inconclusive: 15.8 µM [falling, partial curve]
O=C(Nc1sc2c(c1C(=O)O)CCCCC2)c1cccs1	inconclusive: 165%	–
Cc1ccc(-c2nc(N/N=C/c3cccnc3)c3ccccc3n2)cc1	–	inconclusive: 20.6 µM [falling, partial curve]
Nc1ccc2nc(Cc3ccccc3)[nH]c2c1	inconclusive: 14.2%	–
CN(C(=S)NC(=O)C1(C)CC1(Cl)Cl)c1ccccc1 (stereo not given)	inconclusive: -11.1%	–
O=C(O)c1ccc(N=N/C(=N\Nc2ccc(C(=O)O)cc2)c2ccccc2)cc1	inactive: 10.1%	–
CN(CC(CC(=O)Nc1nncs1)c1ccccc1)S(=O)(=O)c1ccccc1 (stereo not given)	–	inconclusive: 8.2 µM [falling, partial curve, poor fit]
CCOC(=O)C1C(=O)CC(C)(O)C(C(=O)OCC)C1c1ccc(F)cc1 (stereo not given)	inactive: -2.33%	–
CCCCCCC(=O)N/N=C1\CCCc2ccccc21	inconclusive: 7.1%	–
CSc1ccc(/C=N/NC(=O)c2cccc(O)c2)cc1	inconclusive: 304%	–
CCOC(=O)C1=C(C)NC(C)=C(C(=O)OCC)C1c1ccc([N+](=O)[O-])s1	–	inconclusive: 3.16 µM [falling, partial curve, poor fit]
COc1ccc(C2(C)NC(=O)N(CC(=O)Nc3ccc4c(c3)OCO4)C2=O)cc1OC (stereo not given)	inconclusive: -2%	–

Random excerpt: 2 entries already listed
SMILES	activity change, negative = inhibition	Potency
Cn1ncc(C(N)=O)c1NC(=S)NC(=O)c1ccc(Br)o1	inconclusive: 5.39%	–
CC(=O)CC(C)(C)S(=O)(=O)c1ccc(Oc2ccc(S(=O)(=O)C(C)(C)CC(C)=O)cc2)cc1	inconclusive: 10.9%	–

Next part:

SMILES	activity change, negative = inhibition	Potency
CCOc1cc(C(c2c(C)[nH][nH]c2=O)c2c(C)[nH][nH]c2=O)ccc1OS(=O)(=O)c1ccc(C)cc1	inconclusive: -10.7%	–
Cc1cc(C)n(-c2nc3ccccc3nc2Nc2ccc(CC(=O)O)cc2)n1	inconclusive: -22%	–
COc1ccc(CC(=O)NCc2nn(-c3ccccc3)nc2C)cc1OC	inactive: 3.71%	–
COc1ccc(Nc2cc(C(=O)NCCCN3CCOCC3)c3ccccc3n2)cc1	inactive: 13.7%	–
COc1ccc(C(=O)Cn2c(C(=O)/C=C/c3ccccc3)nc3ccccc32)cc1	inconclusive: 20.7%	–
COc1ccc(C(=O)/C=C/Nc2ccccn2)c(OC)c1	inconclusive: 400%	–
O=c1[nH]c(SCc2cccc(Cl)c2)nc2[nH]ncc12	inconclusive: -17.7%	–
CC[C@]12c3[nH]c4cc(-c5ccco5)ccc4c3CCN1C(=O)[C@@H](CC(=O)NCc1ccc(OC)c(OC)c1)C[C@@H]2C(=O)N1CCN(C(=O)c2ccco2)CC1	inactive: -3.51%	–
COc1ccc(CNC(=O)c2ccc(Cn3nc(C)c([N+](=O)[O-])c3C)o2)cc1	–	inconclusive: 17.8 µM [falling, partial curve, poor fit]
CN(c1cccc(NC(=O)Nc2ccc(Cl)cc2)c1)S(C)(=O)=O	–	inconclusive: 10 µM [rising, partial curve, poor fit]
COc1ccc(-n2cc(CN(C)CCO)c(-c3cccc(F)c3)n2)cc1	–	inconclusive: 35.5 µM [falling, single point]
CCCCC(=O)Nc1nc2c(OC)ccc(OC)c2s1	–	inconclusive: 0.411 µM [rising, full curve]
O=C(COS(=O)c1ccccc1)Nc1cc(Cl)ccc1N1CCOCC1 (stereo not given)	inconclusive: -0.422%	–
COc1cc(C(=O)NC(=S)Nc2ccc(Cl)cn2)cc(OC)c1OC	inconclusive: -2%	–
CS(=O)(=O)c1ccc(Cl)c(NC(=O)Nc2ccccc2)c1	inconclusive: -27.7%	–
CCN(Cc1ccc(OC)c(COC)c1)CC1CCCN(CCc2cccc(F)c2)C1 (stereo not given)	inconclusive: -8.5%	–
Cc1ccc(NC(=O)C(NC2CCCc3ccccc32)c2ccccc2)cc1Cl (stereo not given)	inactive: 14.4%	–
COc1ccccc1OCCOc1ccccc1/C=N/n1cnnc1	inconclusive: -9.94%	–
Oc1[nH]c2ccccc2c1N=Nc1ccc(F)cc1	inconclusive: -22.4%	–
Cc1ccc2cc(C(c3nnnn3Cc3ccccc3)N3CCc4ccccc43)c(=O)[nH]c2c1 (stereo not given)	inconclusive: -1.11%	–
COc1ccc(-c2ccc(-c3cc(=O)oc4cc(OC)c(OC)c(OC)c34)cc2)cc1	inactive: 4.98%	–
O=C(NCC(=O)N1CCCCC1)c1ccc2ccccc2c1	–	inconclusive: 12.6 µM [falling, partial curve]
O=C1CCCC2=C1C1O[C@](CCCCN3C(=O)c4ccccc4C3=O)(Cc3c1ccc1ccccc31)O2	inactive: -5.81% [at 9.22 µM]	–
CCS(=O)(=O)N1CCN(c2ccccc2F)CC1	inconclusive: 5.56%	–
CCCCCCn1ccc(=N)cc1	inactive: 2.3%	–
CC(C)NC(=O)c1sc(=S)n2c1[nH]c(=O)c1ccc(C(=O)NCCc3ccc(Cl)cc3)cc12	inactive: -1.85%	–
Cc1cccc(NS(=O)(=O)c2cc(C(=O)OC(C)C(=O)NCc3ccc4c(c3)OCO4)ccc2C)c1 (stereo not given)	–	inconclusive: 16.4 µM [falling, single point]

One compound at a time (already shown):
CCOc1cc(C(c2c(C)[nH][nH]c2=O)c2c(C)[nH][nH]c2=O)ccc1OS(=O)(=O)c1ccc(C)cc1 as listed: activity change, negative = inhibition: inconclusive: -10.7%
COc1ccc(C(=O)Cn2c(C(=O)/C=C/c3ccccc3)nc3ccccc32)cc1 as listed: activity change, negative = inhibition: inconclusive: 20.7%
Cc1cc(C)n(-c2nc3ccccc3nc2Nc2ccc(CC(=O)O)cc2)n1 as listed: activity change, negative = inhibition: inconclusive: -22%

Further entries:

SMILES	activity change, negative = inhibition	Potency
CCc1ccc(-c2nc(CS(=O)CC(=O)NCCCN3CCOCC3)c(C)o2)cc1 (stereo not given)	inconclusive: -7.04%	–
O=C(NN1C(=O)c2ccccc2C1=O)c1ccccc1[N+](=O)[O-]	–	inconclusive: 31.6 µM [falling, single point]
CC(=O)N1N=C(c2ccccc2)CC1c1ccccc1 (stereo not given)	inactive: 6.09%	–
CCOC(=O)c1c(/N=C/N(C)C)sc(/C=N/Nc2ccccc2)c1-c1ccccc1	inconclusive: -9.15%	–
COc1ccc(-n2nc(C(=O)NCC(=O)NCCCN3CCCCCC3)c3ccccc3c2=O)cc1Cl	inactive: 6.29%	–
COc1cc(OC)cc(Oc2ccc(S(=O)(=O)N3CCCCC3)cc2[N+](=O)[O-])c1	inconclusive: -9.89%	–
CC(=O)c1cc(-c2ccc(F)cc2)n(CCC(=O)Nc2nc3ccc(C)cc3s2)c1C	inconclusive: 10.5%	–
Cn1ncc(Cl)c1C(=O)N1CCC(Cc2ccccc2)CC1	inactive: -1.58%	–
Cc1ccc(-c2cc(C(=O)N3CCN(c4ncccn4)CC3)c3cc(Br)ccc3n2)o1	inconclusive: 7.13%	–
Cc1cc2cc(CNC(=O)Cc3cccs3)ccc2n1C	–	inconclusive: 11.2 µM [falling, partial curve, poor fit]
O=C(O)CCC(=O)Nc1ccccc1C(=O)NC1CCCCC1	inconclusive: -0.698%	–
COc1cccc(C2=NOC(C(=O)NCc3cccnc3)C2)c1 (stereo not given)	inactive: 0.729%	–
COc1ccccc1NC(=O)c1ccc2[nH]c(C)c(C)c2c1	inconclusive: -1.42%	–
COc1cc(C(CC(=O)Nc2ncccc2C)N2Cc3ccccc3C2=O)cc(OC)c1OC (stereo not given)	inconclusive: 3.8%	–
COCc1cc(=O)n2[nH]c(C)c(-c3ccccc3)c2n1	inconclusive: -3.14%	–
COc1ccc(NC(=S)Nc2ccc(N)c([N+](=O)[O-])c2)cc1	inconclusive: -6.43%	–
N/C(=N\OC(=O)CSc1ccccc1)c1ccccn1	inconclusive: 284%	–
Cc1c(O)cccc1C(=O)N[C@@H](CSc1ccccc1)[C@H](O)CN1C[C@H]2CCCC[C@H]2C[C@H]1C(=O)NC(C)(C)C	inconclusive: 24.9%	–
COC(=O)c1c(-c2c(Cl)cccc2Cl)noc1NC(=O)N(C)C	–	inconclusive: 12.6 µM [falling, partial curve, poor fit]
COc1cc(=O)n2c(-c3ccccc3)csc2n1	inconclusive: 0.277%	–
COc1ccc(/C=C2\SC(=S)N(N3C(=O)CCC3=O)C2=O)cc1O	inconclusive: -28.8%	–
CCOC(=O)Nc1sc2c(c1C#N)CCCC2	inconclusive: 6.11%	–
CC(C)[C@H]1COCCS(=O)(=O)N1Cc1ccccc1-c1ccc(F)cc1	inconclusive: 0.348%	–
Clc1ccc(CN2CCc3c([nH]c4ccccc34)C2)cc1Cl	inconclusive: -7.12%	–
Cc1[nH]c2ccccc2c1/C=N\NC(=O)c1ccco1	–	inconclusive: 20 µM [falling, single point]
Cc1c(N(C(=O)c2ccccn2)C2(C(=O)NC3CCCCC3)CCCCC2)c(=O)n(-c2ccccc2)n1C	inactive: 2.93%	–
